## Results of single-concentration screens

The chains behind the UniProt entries cited, without tags or fusion partners. Residues count along the entry.
UniProt A4I591, 1-473: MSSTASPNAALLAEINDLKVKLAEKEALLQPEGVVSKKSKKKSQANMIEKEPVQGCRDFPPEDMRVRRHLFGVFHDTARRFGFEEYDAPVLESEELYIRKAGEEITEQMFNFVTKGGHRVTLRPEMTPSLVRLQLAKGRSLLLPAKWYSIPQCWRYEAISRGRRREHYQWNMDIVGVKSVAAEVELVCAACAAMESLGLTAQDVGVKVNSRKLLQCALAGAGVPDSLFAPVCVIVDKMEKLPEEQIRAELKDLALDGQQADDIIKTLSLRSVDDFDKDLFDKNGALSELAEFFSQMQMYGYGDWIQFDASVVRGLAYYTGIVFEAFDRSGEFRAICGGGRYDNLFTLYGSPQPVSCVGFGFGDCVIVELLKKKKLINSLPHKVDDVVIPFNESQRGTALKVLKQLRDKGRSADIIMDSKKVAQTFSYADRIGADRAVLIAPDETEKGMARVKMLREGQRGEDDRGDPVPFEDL
UniProt P9WPC5, whole entry: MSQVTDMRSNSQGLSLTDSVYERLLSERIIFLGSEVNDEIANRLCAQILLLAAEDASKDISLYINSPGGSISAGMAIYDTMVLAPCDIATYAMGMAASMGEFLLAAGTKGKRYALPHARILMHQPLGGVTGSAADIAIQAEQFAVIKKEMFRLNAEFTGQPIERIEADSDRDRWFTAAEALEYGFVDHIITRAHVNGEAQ
UniProt P9WPC3, whole entry partner: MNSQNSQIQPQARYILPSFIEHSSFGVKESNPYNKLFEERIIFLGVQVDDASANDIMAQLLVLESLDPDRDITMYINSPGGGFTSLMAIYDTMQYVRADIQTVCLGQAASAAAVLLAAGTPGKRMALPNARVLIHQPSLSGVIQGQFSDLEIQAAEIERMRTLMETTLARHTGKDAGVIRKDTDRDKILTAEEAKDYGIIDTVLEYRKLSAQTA

Measurements from “University of Dundee, Small-Polar-MMV Screening Library” (2021), ChEMBL document CHEMBL3988442.

LiHisRS: 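Enzyme assay of histidyl-tRNA synthetase; the read-out is not stated. Target: Histidine-tRNA ligase, Leishmania infantum (UniProt A4I591). Compounds at 30 µM. Direction is inferred from retests: higher values go with stronger inhibition. The assay is labelled LdHisRS but filed under L. infantum. Of about 69,000 compounds tested this way, about 410 (0.6%) reached 50% or more in at least one test.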
Toxoplasma: 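Assay of Toxoplasma gondii numbers, read through their beta-galactosidase reporter with a colour substrate. Concentration: 10 µM. The record gives no direction; the compounds picked for IC50 retests had high values, so higher reads as fewer parasites. Size under these conditions: about 67,000 compounds, about 260 of them at 50% or above in at least one test.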
ClpP1P2: 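Protease assay of ClpP1P2, read by the AMC dye that it sets free. Target: ClpP1P2, Mycobacterium tuberculosis (UniProt P9WPC5 and UniProt P9WPC3). Compounds at 50 µM. Higher reads as stronger inhibition, judged from the few compounds that gave an IC50. Most other retested compounds had strongly negative values. Size under these conditions: about 69,000 compounds, about 10 of them at 50% or above in at least one test.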
T. brucei: 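Whole-parasite assay of Trypanosoma brucei over 72 hours; the read-out is not stated. Tested at 30 µM. Direction is inferred from retests: higher values go with stronger inhibition. Values scatter widely below zero; nearly all retest evidence comes from the higher of the two concentrations used. Size under these conditions: about 64,000 compounds, about 940 of them at 50% or above in at least one test.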
Leishmania in macrophages: 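Cell assay of Leishmania donovani living inside macrophages; the read-out is not stated. Compounds at 30 µM. Higher reads as stronger inhibition (inferred: compounds with an IC50 in retests scored well above the rest). About 69,000 compounds were tested under these conditions; 1.5% (about 1,000) showed 50% or more at least once.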

Each number is a percent effect as filed. How 0% and 100% were set is not recorded. Most values in the screen are low, and negative values occur. This is an unselected part of the compounds tested.

* COC[C@@]12CCO[C@@H]1CCN(C(=O)Cc1ccccc1F)C2 : LiHisRS: 11.43%; ClpP1P2: -1.482%
* CC(=O)N1CCc2c(nc(N(C)C)nc2NCCCn2ccnc2)C1 : LiHisRS: 15%; Toxoplasma: 17.79%; ClpP1P2: 8.549%; T. brucei: -45.78%; Leishmania in macrophages: -10.69%
* COc1cccc2c1OCC(NCCc1cnn(-c3ccccc3)c1)C2 (stereo unspecified) : LiHisRS: 7.042%; Toxoplasma: 0%; ClpP1P2: 3.901%; T. brucei: -5.023%; Leishmania in macrophages: -14.76%
* Cc1ncsc1CN1C[C@@H]2CCCO[C@@H]2[C@H](N(C)C(C)C)C1 : LiHisRS: 14.04%; ClpP1P2: -7.88%
* CCc1ccc2nc(NCC(O)CO)cc(C)c2c1 (stereo unspecified) : LiHisRS: 20%; Toxoplasma: 1.165%; ClpP1P2: 18.51%; T. brucei: -16.92%; Leishmania in macrophages: 21.82%
* O=C1COC2(CCN(Cc3nccs3)CC2)CN1c1ccccc1 : LiHisRS: 22.34%; ClpP1P2: 0.9964%
* Cc1cccc(S(=O)(=O)N2CSCC2C(=O)NC(C)(C)C)c1 (stereo unspecified) : LiHisRS: 25.37%; Toxoplasma: 0.46%; ClpP1P2: 3.849%; T. brucei: -16.71%; Leishmania in macrophages: 14.93%
* Cc1nc(CN2CCOCC3(CCN(c4ccccn4)C3)C2)cs1 (stereo unspecified) : LiHisRS: 0%; ClpP1P2: -6.375%
* O=C(COc1ccc2c(c1)CCCC2=O)NCc1ccco1 : LiHisRS: 35.21%; Toxoplasma: -0.7551%; ClpP1P2: -1.887%; T. brucei: -33.8%; Leishmania in macrophages: 26.46%
* CCCN(Cc1ccccc1O)S(=O)(=O)N(C)CC : LiHisRS: 12.86%; Toxoplasma: -2.622%; ClpP1P2: -4.347%; T. brucei: -50.11%; Leishmania in macrophages: 40.86%
* c1ccc2ncc(CC3CNCCOC3)cc2c1 (stereo unspecified) : LiHisRS: 7.092%; Toxoplasma: -22.46%; ClpP1P2: 1.768%; T. brucei: -17.34%; Leishmania in macrophages: -41.21%
* O=C(CC(F)(F)F)N1CCC2(CCCN(c3nncs3)C2)C1 (stereo unspecified) : LiHisRS: 24%; Toxoplasma: -18.78%; ClpP1P2: -1.503%; T. brucei: -13.63%; Leishmania in macrophages: 11.94%
* CCOc1cc(CNC(C)c2sccc2C)ccn1 (stereo unspecified) : LiHisRS: 8.73%; Toxoplasma: 5.37%; ClpP1P2: -7.496%; T. brucei: -46.29%; Leishmania in macrophages: 12.27%
* CC(C)Nc1nnc(SCc2nnc(C(C)(C)C)o2)s1 : LiHisRS: 38.55%; Toxoplasma: -7.502%; ClpP1P2: -6.226%; T. brucei: -23.17%; Leishmania in macrophages: 11.39%
* Cc1cnn(CC2CCCN2C(=O)c2c(C)noc2C(C)C)c1 (stereo unspecified) : LiHisRS: 7.895%; Toxoplasma: -15.86%; ClpP1P2: -30.33%; T. brucei: -10%; Leishmania in macrophages: -24.58%
* CCN(CC)CC1CN(Cc2nccs2)Cc2nccn2C1 (stereo unspecified) : LiHisRS: 18.92%; ClpP1P2: -3.785%
* O=S(=O)(c1cccc(F)c1)N1CC[C@H]2[C@H]1CCN2c1ncccn1 : LiHisRS: 13.68%; ClpP1P2: 1.548%
* O=C(NCCCn1ccnc1)N1CCCC1c1ccsc1 (stereo unspecified) : LiHisRS: 13.89%; Toxoplasma: -21.67%; ClpP1P2: -0.2594%; T. brucei: -6.442%; Leishmania in macrophages: -4.15%
* O=C(NCc1ccco1)c1cc[n+]([O-])cc1 : LiHisRS: 13.04%; Toxoplasma: 2.438%; ClpP1P2: 18.48%; T. brucei: -34.65%; Leishmania in macrophages: 13.36%
* CCCC(C)CS(=O)(=O)NCc1cccnc1N(C)C (stereo unspecified) : LiHisRS: 8.571%; Toxoplasma: -5.246%; ClpP1P2: -2.174%; T. brucei: -19.28%; Leishmania in macrophages: 23.02%
* COc1c(C2CCCN2C(=O)c2cnc[nH]2)c(C)nn1C (stereo unspecified) : LiHisRS: 0%; Toxoplasma: -3.454%; ClpP1P2: -19.18%; T. brucei: -22.04%; Leishmania in macrophages: -5.878%
* O=C(NCc1ccncc1)C1=NOC2(CCCNC2)C1 (stereo unspecified) : LiHisRS: -43.64%; Toxoplasma: 0.05945%; ClpP1P2: 12.48%; T. brucei: 2.642%; Leishmania in macrophages: 12.35%
* Cc1cc(CNC(=O)C(c2ccc(F)cc2)N(C)C)n[nH]1 (stereo unspecified) : LiHisRS: 4.918%; Toxoplasma: 28.22%; ClpP1P2: -12.08%; T. brucei: -82.24%; Leishmania in macrophages: 33.14%
* CN(C)C(C(=O)N1CCSCC1)c1ccccc1F (stereo unspecified) : LiHisRS: -3.03%; Toxoplasma: -15.14%; ClpP1P2: -1.615%; T. brucei: -46.32%; Leishmania in macrophages: 30.22%
* Cc1nc2ccccc2nc1CN(C)CC1CCCN1c1cccnn1 (stereo unspecified) : LiHisRS: 34.67%; Toxoplasma: 6.32%; ClpP1P2: 18.88%; T. brucei: -12.68%; Leishmania in macrophages: 19.46%

Some entries from above, unchanged:

{"compound": "O=C(CC(F)(F)F)N1CCC2(CCCN(c3nncs3)C2)C1", "stereo": "stereo unspecified", "LiHisRS": 24, "Toxoplasma": -18.78, "ClpP1P2": -1.503, "T. brucei": -13.63, "Leishmania in macrophages": 11.94}
{"compound": "Cc1cc(CNC(=O)C(c2ccc(F)cc2)N(C)C)n[nH]1", "stereo": "stereo unspecified", "LiHisRS": 4.918, "Toxoplasma": 28.22, "ClpP1P2": -12.08, "T. brucei": -82.24, "Leishmania in macrophages": 33.14}